From the supplement of paper PMC7661543
The effect of the compound repeats well; differences between the knockouts mostly do not.

Test system: HCC-38
Test: relative cell number vs DMSO control (72 h) (% of DMSO); higher = less growth inhibition (more cells)
Procedure: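 QMAP-Seq: a pool of 5 breast cancer cell lines (ZR-75-1, SKBR3, HCC-38, MDA-MB-231, BT-20), each carrying 12 doxycycline-inducible Cas9 sgRNA perturbations (11 knockouts plus non-targeting sgNT), was treated with compounds for 72 h at four 10-fold doses (10 nM-10 uM or 1 nM-1 uM range). Barcodes were amplified and sequenced, and cell number was interpolated from 293T spike-in standard curves. The result is expressed as % of the median of DMSO wells. Two biological replicates.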

C[C@]12CC[C@H](O)CC1=CC[C@@H]1[C@@H]2CC[C@]2(C)C(c3cccnc3)=CC[C@@H]12 [Abiraterone]
Details | relative cell number
sgRNA knockout: sgATF3, 1 nM | 112
sgRNA knockout: sgATF3, 10 nM | 111
sgRNA knockout: sgATF3, 100 nM | 103
sgRNA knockout: sgATF3, 1000 nM | 121
sgRNA knockout: sgATF4, 1 nM | 104
sgRNA knockout: sgATF4, 10 nM | 102
sgRNA knockout: sgATF4, 100 nM | 90.5
sgRNA knockout: sgATF4, 1000 nM | 111
sgRNA knockout: sgATF6, 1 nM | 114
sgRNA knockout: sgATF6, 10 nM | 123
sgRNA knockout: sgATF6, 100 nM | 119
sgRNA knockout: sgATF6, 1000 nM | 118
sgRNA knockout: sgATG7, 1 nM | 107
sgRNA knockout: sgATG7, 10 nM | 103
sgRNA knockout: sgATG7, 100 nM | 97.1
sgRNA knockout: sgATG7, 1000 nM | 112
sgRNA knockout: sgERN1, 1 nM | 116
sgRNA knockout: sgERN1, 10 nM | 101
sgRNA knockout: sgERN1, 100 nM | 109
sgRNA knockout: sgERN1, 1000 nM | 118
sgRNA knockout: sgHSF1, 1 nM | 119
sgRNA knockout: sgHSF1, 10 nM | 110
sgRNA knockout: sgHSF1, 100 nM | 121
sgRNA knockout: sgHSF1, 1000 nM | 120
sgRNA knockout: sgHSF2, 1 nM | 114
sgRNA knockout: sgHSF2, 10 nM | 111
sgRNA knockout: sgHSF2, 100 nM | 105
sgRNA knockout: sgHSF2, 1000 nM | 117
sgRNA knockout: sgKEAP1, 1 nM | 121.2
sgRNA knockout: sgKEAP1, 10 nM | 126
sgRNA knockout: sgKEAP1, 100 nM | 126
sgRNA knockout: sgKEAP1, 1000 nM | 112
sgRNA knockout: sgNFE2L2, 1 nM | 97.3
sgRNA knockout: sgNFE2L2, 10 nM | 96
sgRNA knockout: sgNFE2L2, 100 nM | 91.2
sgRNA knockout: sgNFE2L2, 1000 nM | 110
sgRNA knockout: sgSLC35F2, 1 nM | 105
sgRNA knockout: sgSLC35F2, 10 nM | 106
sgRNA knockout: sgSLC35F2, 100 nM | 101
sgRNA knockout: sgSLC35F2, 1000 nM | 101
sgRNA knockout: sgXBP1, 1 nM | 97.4
sgRNA knockout: sgXBP1, 10 nM | 103
sgRNA knockout: sgXBP1, 100 nM | 94.7
sgRNA knockout: sgXBP1, 1000 nM | 119

Cc1cc(N2CCOCC2)cc2[nH]c(-c3c(NC[C@@H](O)c4cccc(Cl)c4)cc[nH]c3=O)nc12
Details | relative cell number
sgRNA knockout: sgATF3, 10 nM | 94.5
sgRNA knockout: sgATF3, 100 nM | 86.5
sgRNA knockout: sgATF3, 1000 nM | 89.4
sgRNA knockout: sgATF3, 10000 nM | 33.1
sgRNA knockout: sgATF4, 10 nM | 94.96
sgRNA knockout: sgATF4, 100 nM | 79.8
sgRNA knockout: sgATF4, 1000 nM | 95.5
sgRNA knockout: sgATF4, 10000 nM | 32.8
sgRNA knockout: sgATF6, 10 nM | 103
sgRNA knockout: sgATF6, 100 nM | 89.3
sgRNA knockout: sgATF6, 1000 nM | 106
sgRNA knockout: sgATF6, 10000 nM | 35.7
sgRNA knockout: sgATG7, 10 nM | 88.8
sgRNA knockout: sgATG7, 100 nM | 90.2
sgRNA knockout: sgATG7, 1000 nM | 85.4
sgRNA knockout: sgATG7, 10000 nM | 30.9
sgRNA knockout: sgERN1, 10 nM | 96
sgRNA knockout: sgERN1, 100 nM | 82.7
sgRNA knockout: sgERN1, 1000 nM | 90.5
sgRNA knockout: sgERN1, 10000 nM | 32.4
sgRNA knockout: sgHSF1, 10 nM | 101
sgRNA knockout: sgHSF1, 100 nM | 90.7
sgRNA knockout: sgHSF1, 1000 nM | 98.5
sgRNA knockout: sgHSF1, 10000 nM | 48.1
sgRNA knockout: sgHSF2, 10 nM | 96
sgRNA knockout: sgHSF2, 100 nM | 86.7
sgRNA knockout: sgHSF2, 1000 nM | 92.2
sgRNA knockout: sgHSF2, 10000 nM | 36.4
sgRNA knockout: sgKEAP1, 10 nM | 118.2
sgRNA knockout: sgKEAP1, 100 nM | 90.3
sgRNA knockout: sgKEAP1, 1000 nM | 122
sgRNA knockout: sgKEAP1, 10000 nM | 36.8
sgRNA knockout: sgNFE2L2, 10 nM | 86.8
sgRNA knockout: sgNFE2L2, 100 nM | 75.7
sgRNA knockout: sgNFE2L2, 1000 nM | 84
sgRNA knockout: sgNFE2L2, 10000 nM | 31.8
sgRNA knockout: sgSLC35F2, 10 nM | 94.2
sgRNA knockout: sgSLC35F2, 100 nM | 82.8
sgRNA knockout: sgSLC35F2, 1000 nM | 89.2
sgRNA knockout: sgSLC35F2, 10000 nM | 35.6
sgRNA knockout: sgXBP1, 10 nM | 90.4
sgRNA knockout: sgXBP1, 100 nM | 84
sgRNA knockout: sgXBP1, 1000 nM | 87.8
sgRNA knockout: sgXBP1, 10000 nM | 33.19

O=C(Nc1ccc([N+](=O)[O-])cc1Cl)c1cc(Cl)ccc1O [Niclosamide]
Details | relative cell number
sgRNA knockout: sgATF3, 10 nM | 101
sgRNA knockout: sgATF3, 100 nM | 99.6
sgRNA knockout: sgATF3, 1000 nM | 109
sgRNA knockout: sgATF3, 10000 nM | 51.2
sgRNA knockout: sgATF4, 10 nM | 106
sgRNA knockout: sgATF4, 100 nM | 91
sgRNA knockout: sgATF4, 1000 nM | 113
sgRNA knockout: sgATF4, 10000 nM | 46
sgRNA knockout: sgATF6, 10 nM | 97.7
sgRNA knockout: sgATF6, 100 nM | 105
sgRNA knockout: sgATF6, 1000 nM | 116
sgRNA knockout: sgATF6, 10000 nM | 65.5
sgRNA knockout: sgATG7, 10 nM | 97.6
sgRNA knockout: sgATG7, 100 nM | 97.9
sgRNA knockout: sgATG7, 1000 nM | 104
sgRNA knockout: sgATG7, 10000 nM | 46.6
sgRNA knockout: sgERN1, 10 nM | 101
sgRNA knockout: sgERN1, 100 nM | 102
sgRNA knockout: sgERN1, 1000 nM | 106
sgRNA knockout: sgERN1, 10000 nM | 55.5
sgRNA knockout: sgHSF1, 10 nM | 104
sgRNA knockout: sgHSF1, 100 nM | 105
sgRNA knockout: sgHSF1, 1000 nM | 109
sgRNA knockout: sgHSF1, 10000 nM | 80.3
sgRNA knockout: sgHSF2, 10 nM | 109
sgRNA knockout: sgHSF2, 100 nM | 93
sgRNA knockout: sgHSF2, 1000 nM | 116
sgRNA knockout: sgHSF2, 10000 nM | 54.9
sgRNA knockout: sgKEAP1, 10 nM | 122
sgRNA knockout: sgKEAP1, 100 nM | 99.3
sgRNA knockout: sgKEAP1, 1000 nM | 115
sgRNA knockout: sgKEAP1, 10000 nM | 72.2
sgRNA knockout: sgNFE2L2, 10 nM | 98.8
sgRNA knockout: sgNFE2L2, 100 nM | 90.9
sgRNA knockout: sgNFE2L2, 1000 nM | 110
sgRNA knockout: sgNFE2L2, 10000 nM | 46.9
sgRNA knockout: sgSLC35F2, 10 nM | 102
sgRNA knockout: sgSLC35F2, 100 nM | 93.8
sgRNA knockout: sgSLC35F2, 1000 nM | 109
sgRNA knockout: sgSLC35F2, 10000 nM | 46
sgRNA knockout: sgXBP1, 10 nM | 101
sgRNA knockout: sgXBP1, 100 nM | 91.6
sgRNA knockout: sgXBP1, 1000 nM | 114
sgRNA knockout: sgXBP1, 10000 nM | 45.7

NC(=O)Nc1sc(-c2ccc(F)cc2)cc1C(N)=O [TPCA1]
Details | relative cell number
sgRNA knockout: sgATF3, 10 nM | 99
sgRNA knockout: sgATF3, 100 nM | 87.9
sgRNA knockout: sgATF3, 1000 nM | 120
sgRNA knockout: sgATF3, 10000 nM | 71.1
sgRNA knockout: sgATF4, 10 nM | 79.5
sgRNA knockout: sgATF4, 100 nM | 88.8
sgRNA knockout: sgATF4, 1000 nM | 107
sgRNA knockout: sgATF4, 10000 nM | 78.3
sgRNA knockout: sgATF6, 10 nM | 96
sgRNA knockout: sgATF6, 100 nM | 105
sgRNA knockout: sgATF6, 1000 nM | 106
sgRNA knockout: sgATF6, 10000 nM | 69.1
sgRNA knockout: sgATG7, 10 nM | 87.3
sgRNA knockout: sgATG7, 100 nM | 87.48
sgRNA knockout: sgATG7, 1000 nM | 116
sgRNA knockout: sgATG7, 10000 nM | 78.8
sgRNA knockout: sgERN1, 10 nM | 92.939
sgRNA knockout: sgERN1, 100 nM | 100
sgRNA knockout: sgERN1, 1000 nM | 107
sgRNA knockout: sgERN1, 10000 nM | 74.2
sgRNA knockout: sgHSF1, 10 nM | 115
sgRNA knockout: sgHSF1, 100 nM | 110
sgRNA knockout: sgHSF1, 1000 nM | 108
sgRNA knockout: sgHSF1, 10000 nM | 79.3
sgRNA knockout: sgHSF2, 10 nM | 102.5
sgRNA knockout: sgHSF2, 100 nM | 100
sgRNA knockout: sgHSF2, 1000 nM | 112
sgRNA knockout: sgHSF2, 10000 nM | 80.7
sgRNA knockout: sgKEAP1, 10 nM | 118
sgRNA knockout: sgKEAP1, 100 nM | 127
sgRNA knockout: sgKEAP1, 1000 nM | 102
sgRNA knockout: sgKEAP1, 10000 nM | 82.3
sgRNA knockout: sgNFE2L2, 10 nM | 81.7
sgRNA knockout: sgNFE2L2, 100 nM | 86.04
sgRNA knockout: sgNFE2L2, 1000 nM | 110
sgRNA knockout: sgNFE2L2, 10000 nM | 70.6
sgRNA knockout: sgSLC35F2, 10 nM | 96.1
sgRNA knockout: sgSLC35F2, 100 nM | 91.6
sgRNA knockout: sgSLC35F2, 1000 nM | 110
sgRNA knockout: sgSLC35F2, 10000 nM | 76.1
sgRNA knockout: sgXBP1, 10 nM | 94.8
sgRNA knockout: sgXBP1, 100 nM | 93.3
sgRNA knockout: sgXBP1, 1000 nM | 115
sgRNA knockout: sgXBP1, 10000 nM | 79.4
